Experimental findings from paper PMC10131864 are described below.

The chains behind the UniProt entries cited, without tags or fusion partners.
UniProt P35222: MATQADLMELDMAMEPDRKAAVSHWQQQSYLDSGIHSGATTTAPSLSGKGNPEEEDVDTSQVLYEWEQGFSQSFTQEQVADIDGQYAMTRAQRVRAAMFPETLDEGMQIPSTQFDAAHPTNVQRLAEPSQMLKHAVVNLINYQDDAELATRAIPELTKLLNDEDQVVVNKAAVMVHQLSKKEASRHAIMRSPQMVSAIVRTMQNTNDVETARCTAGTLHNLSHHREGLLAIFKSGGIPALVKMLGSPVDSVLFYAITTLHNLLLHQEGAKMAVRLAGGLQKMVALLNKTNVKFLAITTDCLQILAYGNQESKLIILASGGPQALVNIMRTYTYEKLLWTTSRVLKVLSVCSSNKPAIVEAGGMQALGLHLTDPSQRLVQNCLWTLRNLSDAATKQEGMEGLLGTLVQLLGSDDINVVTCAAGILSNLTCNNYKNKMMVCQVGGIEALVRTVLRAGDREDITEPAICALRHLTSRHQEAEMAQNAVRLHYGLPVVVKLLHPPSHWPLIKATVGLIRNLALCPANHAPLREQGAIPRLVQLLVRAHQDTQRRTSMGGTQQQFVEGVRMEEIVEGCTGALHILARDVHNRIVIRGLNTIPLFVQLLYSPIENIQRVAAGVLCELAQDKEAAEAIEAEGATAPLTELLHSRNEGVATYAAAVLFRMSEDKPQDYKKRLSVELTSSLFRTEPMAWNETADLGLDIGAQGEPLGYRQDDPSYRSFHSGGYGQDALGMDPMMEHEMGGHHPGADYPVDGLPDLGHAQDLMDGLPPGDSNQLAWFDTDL

This assay deals with T1, Phosphomevalonate kinase (PMVK) (human (endogenous in Huh7 and Hep3B)) (UniProt Q15126).
T1 sequence: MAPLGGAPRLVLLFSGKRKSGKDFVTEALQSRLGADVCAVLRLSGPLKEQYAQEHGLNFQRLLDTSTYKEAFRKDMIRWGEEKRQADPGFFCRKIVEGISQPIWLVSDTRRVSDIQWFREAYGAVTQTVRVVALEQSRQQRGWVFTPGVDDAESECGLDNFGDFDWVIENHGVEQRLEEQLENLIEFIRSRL
In words: co-IP; endogenous proteins in Huh7 and Hep3B cell lines; anti-PMVK antibody (H-9) from mouse as IP antibody, mouse IgG as negative control; immunoblot.

These are yes or no findings as the source states them, for the method shown. In cells and extracts the contact can be indirect. Some results given as binding are weak or reduced against the parent protein; the word gives no strength.

β-catenin (from UniProt P35222 1-781): the binding entry is listed as “binds”.
